## Library screening results

Values are the deposited “Percent Effect”, in %. The controls that fix the scale are not given in the record; negative values are as filed. The compounds are a random part of those screened. Two or more numbers in one place are separate tests of the same structure; such repeats can differ widely.

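Viability assay of Plasmodium falciparum sporozoites; the read-out is not stated. The concentration is filed as 10 mM, unlikely as a test dose, so the dose is not known. Higher reads as lower viability (inferred: compounds with an IC50 in retests scored well above the rest). Strong results were mostly tested again. About 34,000 compounds were tested under these conditions; 0.84% (about 280) showed 50% or more at least once.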

structure	percent effect
Cc1cnn(CC2CN(Cc3nc(-c4ccco4)no3)CCO2)c1 (centres undefined)	6.568
CN(C)C(CNCc1nc(-c2ccsc2)no1)c1cccs1 (centres undefined)	18.31
Cc1nn(C)cc1C1=NS(=O)(=O)N(C)C(C(=O)Nc2ccc(Br)cc2)=C1	15.41
COc1cccc2ccn(CC(=O)NCC(C)C)c12	1.134 and -1.268
CN(CC1CCOCC1)C1CCCN(c2ccccn2)C1 (centres undefined)	-4.473
OCC(O)CSCc1cn(-c2ccc(Cl)c(Cl)c2)nn1 (centres undefined)	10.12
O=C(O)C(F)(F)F.O=C(O)C(F)(F)F.[H][C@@]12CCN(C(=O)c3cnn(C)c3)[C@@]1([H])CCN2Cc1cccnc1	-3.657
COc1ccc(-c2nccc(C3CCCN3C)n2)cc1 (centres undefined)	-18.93
O=c1oc(-c2cccs2)nn1CC(O)c1ccccc1F (centres undefined)	-31.86
c1ccc(C2CCCCN2Cc2nc(-c3cnccn3)no2)nc1 (centres undefined)	-12.66
NC(=O)CCCNC(=O)Cc1cccc(I)c1	-6.629
COCC(C)(O)CNC(=O)COc1ccccc1OC (centres undefined)	1.771
Cc1nc(CCNC(=O)NCc2ccc(N(C)C)nc2)cs1	6.24
O=C(O)C(F)(F)F.[H][C@]12CCC[C@@H](CN(C)C)[C@@]1([H])CN(c1cc(OC)ncn1)C2	-15.81
Cc1cc(NC(=O)NCc2nncn2C)ccc1OC(C)C	3.676
c1coc(-c2noc(CN3CC(n4cccn4)C3)n2)c1	-2.081 and -22.27 and -16.38
[H][C@@]12C[C@H](c3nc(C)no3)O[C@@]1([H])CCN(C(=O)C1CCOCC1)C2	4.545
Cc1nc(S(=O)(=O)NCCC(=O)NCc2ccsc2)cn1C	-13.26
COc1ccc2c(ccn2CCC(=O)Nc2ccc(C(N)=O)cc2)c1	-8.516
Cc1cc2[nH]c(=O)c(=O)[nH]c2cc1S(=O)(=O)NC1CCCCC1	-8.505
COCCNc1ccc(CC2CCNC2)cn1 (centres undefined)	6.845
CC(C)Oc1ncnc2c1CCN(C(=O)c1cccn1C)CC2	8.42
[H][C@@]12COC[C@]1(C(=O)NC(C)C)CN(Cc1cnn(C)c1)C2	6.93
Cc1ccc(C(=O)N2Cc3ccccc3OC3(CCOCC3)C2)cn1	10.77
Cc1csc(C(C)(C)NCc2ncc(-c3ccc(F)cc3)o2)n1	-9.298
Cc1c(CCC(=O)N2CCCC2c2ccnc(N(C)C)c2)cnn1C (centres undefined)	-1.982
CCS(=O)(=O)N1CCN(C)c2ncccc2C1	-2.426
Cc1ccc2c(CC(=O)N(C)CCN(C)C)c(C)[nH]c2c1C.O=C(O)CC(O)(CC(=O)O)C(=O)O	2.567
O=C(O)C(F)(F)F.[H][C@]12CCN(Cc3ccc4c(c3)OCO4)[C@@]1([H])C[C@H](C(=O)N(C)C)O2	-16.79
CC(C)COCC(NC(=O)c1cnccn1)c1ccco1 (centres undefined)	0.2576
OCCNc1cc(-c2ccncc2)ncn1	-11.94
Cc1cc(C)cc(OCCN2CCn3c(C)nnc3C2)c1	41.12 and 1.196 and -3.884
FC(F)(F)COCCN1CCN(c2ccc3nncn3n2)CC1	5.724
CSc1nnc(CNC(=O)Nc2ccccc2Br)n1C	1.424
CC(C)CCC(=O)NC(C#N)CC(C)C (centres undefined)	7.119
[H][C@]12CN(Cc3cccc(C)c3)C(=O)[C@@]1([H])CN(S(=O)(=O)CC)C2	7.61
COCCN1C(=O)CCC12CCCN(C(=O)CC1CC1)CC2 (centres undefined)	-0.722
CC(C)SCC(=O)N1CCc2c(nc(N(C)C)nc2N(C)C)C1	7.296
Cc1cccc2[nH]c(C3CCN(C(=O)c4cccnn4)CC3)nc12	8.684
CN1CCCC2(CCN(C(=O)CCn3cncn3)C2)C1=O (centres undefined)	12.99
[H][C@@]12CCCCCN(C(=O)C3CC3)[C@@]1([H])[C@H](c1cccc(F)c1)CN2C	-154.5
COCCOCC(=O)N1CCC(c2ccccc2F)C1 (centres undefined)	-32.85 and -55.9
O=C(O)C(F)(F)F.O=C(O)C(F)(F)F.[H][C@@]12COC[C@]1(COCc1ccncc1)CN(c1cc(OC)ncn1)C2	18.19
O=C(NCC1CCOC1)c1csc(-c2ccc(Cl)cc2)n1 (centres undefined)	-16.66
[H][C@@]12CN(C(=O)N(C)C)C[C@@]1([H])N(CC(C)C)C(=O)CO2	-10.66 and -15.18
Cc1ccc2nc(CN(C)Cc3[nH]nc4c3CCC4)[nH]c2c1C	9.298
CC(C)Nc1ncc(CN2C[C@@H](CN3CCC(O)CC3)[C@@H](CO)C2)cn1	-7.296
Cc1ccc(N2C[C@H](C)[C@]3(CCN(c4cccnc4)C3=O)C2)nn1.O=C(O)C(F)(F)F.O=C(O)C(F)(F)F	3.466
Cc1nc(Nc2nncs2)cc(C2CCCN2)n1.Cl (centres undefined)	14.11
Cc1nn(C)c(C)c1C1COCCN1C(=O)c1n[nH]c2ccccc12 (centres undefined)	-0.3271
[H][C@@]12CCN(Cc3c(C)noc3C)C[C@]1(C(=O)NC)CCO2	0.8323
COc1ccc(CN2CCCC(N3CCCC3)C2)cc1Cn1cncn1 (centres undefined)	5.325
CC1N(c2cnn(C)c2)C(=O)COC12CCN(Cc1ccoc1)CC2 (centres undefined)	16.18
Cc1ccc(S(=O)(=O)N2CCOc3ccccc32)cc1C(=O)O	9.018
CN1CCN(Cc2ccncc2)C(=O)C12CCN(Cc1ccsc1)CC2.O=C(O)C(F)(F)F.O=C(O)C(F)(F)F.O=C(O)C(F)(F)F	9.025
CNc1cccc(C2CCCN(C(=O)c3ccn(C)n3)C2)n1 (centres undefined)	-16.26
CCc1nc(CNc2ccc(-c3nc(C4CC4)no3)cn2)no1	-17.05
CSCC(=O)N1CCCN(Cc2cscn2)CC1	10.45
COc1cccc(OCc2cc(C(=O)NC[C@H]3CCCN3)n[nH]2)c1	-20.83
Cc1c(Cl)cccc1S(=O)(=O)NCc1cnc(N(C)C)n1C	-2.964
CS(=O)(=O)N1CCC(Oc2ccc(C(=O)N3CCSCC3)cc2Cl)CC1	-26.43
O=C(O)C(F)(F)F.O=C(O)C(F)(F)F.O=C(O)C(F)(F)F.O=C(O)c1c(-c2cncnc2)ncc2c1CCN(Cc1cccnc1)C2	1.56
Cc1nnc(CCNC2CCN(c3ncnc4c(C)csc34)CC2)s1	-2.181
CC(O)CN1CCN(C(=O)c2cnn(-c3ccccc3F)c2)CC1 (centres undefined)	-7.296
[H][C@@]12CN(Cc3cccc(Cl)c3)CC[C@]1([H])N(C(C)=O)C[C@H]2c1ccsc1	0.9423
NC(=O)c1cccc(OCC(=O)N2CCCC(n3cccn3)C2)c1 (centres undefined)	-23.86
CC(Oc1ccccc1)C(=O)N1CCCN(Cc2nccn2C)CC1 (centres undefined)	8.883
O=C(Cc1cccc(Cl)c1)N[C@@H]1CCNC[C@H]1O	-13.61
COc1cccc(CNC(C)Cn2cccn2)c1OC.Cl (centres undefined)	-5.887
CCn1nc(C)c2nnn(CC(=O)Nc3c(C)cccc3C)c(=O)c21	1.754
CCOc1ccccc1-n1c(-c2cn(CC)nc2C)n[nH]c1=O	0.3509
CC(C)CC(=O)N1CCC(c2nnc3n2CCCCC3)CC1	8.146
CC(C)N1C(=O)CC(NC(=O)c2cc(Cl)sc2Cl)C1=O (centres undefined)	-8.705
O=C(CN1C=Nc2ccccc2S1(=O)=O)NCc1ccccc1F	-3.501
O=C1CC(c2ccccc2)c2snc(C(=O)O)c2N1 (centres undefined)	4.605
O=C(c1cc2c([nH]c1=O)CCC2)N1CCCCC1c1cccc(F)c1 (centres undefined)	-15.27
O=C(O)C(F)(F)F.[H][C@@]12CCN(S(=O)(=O)CC)CC[C@]1(C(=O)N1CCOCC1)CCN2CC	7.015
CCN(CC)C(CNS(=O)(=O)c1ccc(C(=O)NC)cc1)c1ccco1 (centres undefined)	4.51

Some entries from above, unchanged:

structure	percent effect
FC(F)(F)COCCN1CCN(c2ccc3nncn3n2)CC1	5.724
[H][C@@]12C[C@H](c3nc(C)no3)O[C@@]1([H])CCN(C(=O)C1CCOCC1)C2	4.545
CCOc1ccccc1-n1c(-c2cn(CC)nc2C)n[nH]c1=O	0.3509
CN(C)C(CNCc1nc(-c2ccsc2)no1)c1cccs1 (centres undefined)	18.31
CSCC(=O)N1CCCN(Cc2cscn2)CC1	10.45

From ChEMBL document CHEMBL3988442, “University of Dundee, Small-Polar-MMV Screening Library” (2021).